These are yes or no findings as the source states them, for the method shown. Some entries that bind do so weakly or less than the wild type. Sequences can lack the tags named with a protein.
Target: T1, Dbf4, Gal4 DNA binding domain fusion (GAL4-BD-DBF4) (budding yeast) (UniProt P32325)
T1 sequence: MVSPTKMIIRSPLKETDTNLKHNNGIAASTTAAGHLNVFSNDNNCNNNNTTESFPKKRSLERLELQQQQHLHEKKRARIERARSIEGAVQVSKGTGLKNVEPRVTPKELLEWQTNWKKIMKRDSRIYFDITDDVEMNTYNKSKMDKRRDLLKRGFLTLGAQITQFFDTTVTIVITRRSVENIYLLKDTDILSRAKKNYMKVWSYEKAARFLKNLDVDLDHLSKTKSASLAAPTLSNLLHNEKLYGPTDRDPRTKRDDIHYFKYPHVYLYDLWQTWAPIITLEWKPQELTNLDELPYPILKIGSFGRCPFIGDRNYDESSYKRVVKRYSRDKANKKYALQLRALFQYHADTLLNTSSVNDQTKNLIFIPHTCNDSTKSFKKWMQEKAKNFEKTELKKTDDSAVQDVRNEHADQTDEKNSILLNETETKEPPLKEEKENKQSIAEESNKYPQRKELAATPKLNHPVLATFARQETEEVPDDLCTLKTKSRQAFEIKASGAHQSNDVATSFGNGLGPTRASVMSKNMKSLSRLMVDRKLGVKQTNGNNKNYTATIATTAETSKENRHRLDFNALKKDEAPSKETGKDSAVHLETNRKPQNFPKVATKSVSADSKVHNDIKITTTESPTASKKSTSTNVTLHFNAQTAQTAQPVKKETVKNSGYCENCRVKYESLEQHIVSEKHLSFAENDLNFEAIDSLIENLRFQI
Experiment: two-hybrid; Gal4 DNA binding domain (BD) and Gal4 activation domain (AD) fusions; yeast grown at 30°C on SC-W-L or SC-W-L-H plates

Chains of the proteins cited; added tags and fusions are not shown. Residues count along the entry.
UniProt P29469, residues 1-299: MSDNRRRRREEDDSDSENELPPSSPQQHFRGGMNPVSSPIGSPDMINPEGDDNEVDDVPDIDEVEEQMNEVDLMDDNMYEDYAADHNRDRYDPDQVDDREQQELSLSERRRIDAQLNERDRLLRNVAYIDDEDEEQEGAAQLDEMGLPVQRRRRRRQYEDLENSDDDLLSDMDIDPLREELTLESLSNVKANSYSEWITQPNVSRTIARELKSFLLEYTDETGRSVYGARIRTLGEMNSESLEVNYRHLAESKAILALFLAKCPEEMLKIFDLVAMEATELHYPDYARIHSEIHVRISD

- binding: binds
Substance: Mcm2 (1-299), Gal4 activation domain fusion (GAL4-AD-mcm2(1-299)) (from UniProt P29469 1-299) (domain or fragment)
